From publication PMC7862700
The entries are a selection whose mix differs from that of the whole data set. For some of these results: At the low end of the ranking, values are background and their order means little. This is one part of the list. For some of these results: The source does not settle which construct or isoform was used.

Sequences of proteins named here, by UniProt entry; tags and fusion partners are left off. A change or cut given only in a name is not applied to a line headed by its entry.
UniProt P32519: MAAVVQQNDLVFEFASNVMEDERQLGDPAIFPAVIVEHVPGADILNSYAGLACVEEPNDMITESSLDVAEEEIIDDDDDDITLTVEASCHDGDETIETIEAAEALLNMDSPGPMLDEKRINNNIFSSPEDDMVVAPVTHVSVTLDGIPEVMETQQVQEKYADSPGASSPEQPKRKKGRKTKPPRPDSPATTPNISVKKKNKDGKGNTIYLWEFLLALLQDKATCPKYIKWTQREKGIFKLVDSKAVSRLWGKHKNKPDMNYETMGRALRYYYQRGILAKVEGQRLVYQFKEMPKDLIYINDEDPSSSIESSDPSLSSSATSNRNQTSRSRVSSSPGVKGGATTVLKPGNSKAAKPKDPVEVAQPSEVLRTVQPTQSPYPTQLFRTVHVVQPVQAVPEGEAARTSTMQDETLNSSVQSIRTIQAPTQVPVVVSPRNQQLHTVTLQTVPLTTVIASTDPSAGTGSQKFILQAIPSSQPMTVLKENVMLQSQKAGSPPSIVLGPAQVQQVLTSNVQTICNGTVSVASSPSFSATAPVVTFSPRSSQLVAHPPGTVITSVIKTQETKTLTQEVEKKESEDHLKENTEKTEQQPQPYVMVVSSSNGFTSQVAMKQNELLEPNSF
UniProt P50549: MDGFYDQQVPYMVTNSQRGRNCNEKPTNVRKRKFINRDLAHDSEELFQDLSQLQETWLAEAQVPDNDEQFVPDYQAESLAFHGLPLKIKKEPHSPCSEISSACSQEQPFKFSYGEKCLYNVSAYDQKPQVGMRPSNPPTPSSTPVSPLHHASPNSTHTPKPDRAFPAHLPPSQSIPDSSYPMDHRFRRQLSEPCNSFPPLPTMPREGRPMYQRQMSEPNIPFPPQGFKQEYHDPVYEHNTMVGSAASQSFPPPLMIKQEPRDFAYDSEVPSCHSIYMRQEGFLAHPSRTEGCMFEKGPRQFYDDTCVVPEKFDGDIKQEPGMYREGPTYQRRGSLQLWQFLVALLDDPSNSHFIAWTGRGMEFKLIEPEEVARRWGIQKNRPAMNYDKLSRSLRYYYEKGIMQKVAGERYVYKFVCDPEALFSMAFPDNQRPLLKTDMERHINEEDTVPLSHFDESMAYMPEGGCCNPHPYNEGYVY

How the values were obtained:
Assay in all cases: DAPPL (digital affinity profiling via proximity ligation, sequencing)
Conditions in all cases: 10 mM Tris-HCl pH 7.5, 50 mM NaCl, 1 mM DTT, 4% glycerol, room temperature, 30 min; GST-TFs on glutathione beads, 16-mer random dsDNA library, 0.1% …; high values mean tight binding; double strand, one strand shown; scale: fold enrichment (6-mer frequency, TF over GST control)
ERG = target: T1, ERG (UniProt P11308)
T1 sequence: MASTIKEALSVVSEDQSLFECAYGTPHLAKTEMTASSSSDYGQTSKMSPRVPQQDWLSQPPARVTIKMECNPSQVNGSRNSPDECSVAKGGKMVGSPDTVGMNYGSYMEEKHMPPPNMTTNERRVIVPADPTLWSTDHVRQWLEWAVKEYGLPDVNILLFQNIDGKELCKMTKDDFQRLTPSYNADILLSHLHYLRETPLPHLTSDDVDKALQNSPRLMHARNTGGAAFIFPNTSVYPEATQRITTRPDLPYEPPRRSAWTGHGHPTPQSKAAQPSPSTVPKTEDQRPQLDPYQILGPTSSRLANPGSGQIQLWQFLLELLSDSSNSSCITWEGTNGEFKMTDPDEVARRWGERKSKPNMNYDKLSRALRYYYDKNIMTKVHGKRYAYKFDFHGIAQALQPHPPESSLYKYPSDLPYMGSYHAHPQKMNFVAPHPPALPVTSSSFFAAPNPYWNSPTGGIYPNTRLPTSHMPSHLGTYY

ELF1 = ELF1 (UniProt P32519)
ETV4 = target: T2, ETV4 (UniProt P43268)
T2 sequence: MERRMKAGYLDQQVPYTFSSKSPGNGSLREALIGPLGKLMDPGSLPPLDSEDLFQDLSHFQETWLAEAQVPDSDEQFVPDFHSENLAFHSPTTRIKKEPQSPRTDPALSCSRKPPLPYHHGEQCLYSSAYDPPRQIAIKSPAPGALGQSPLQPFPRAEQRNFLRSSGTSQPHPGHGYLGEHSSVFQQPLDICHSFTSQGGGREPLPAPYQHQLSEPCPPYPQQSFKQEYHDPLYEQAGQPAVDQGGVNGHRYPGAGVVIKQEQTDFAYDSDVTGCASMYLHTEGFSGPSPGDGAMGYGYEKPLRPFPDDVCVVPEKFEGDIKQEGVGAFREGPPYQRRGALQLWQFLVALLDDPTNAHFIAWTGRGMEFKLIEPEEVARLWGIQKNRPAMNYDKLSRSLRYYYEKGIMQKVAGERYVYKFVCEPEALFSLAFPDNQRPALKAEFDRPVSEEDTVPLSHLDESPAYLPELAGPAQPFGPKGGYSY

ETV1 = ETV1 (UniProt P50549)
ERF = target: T3, ERF (UniProt P50548)
T3 sequence: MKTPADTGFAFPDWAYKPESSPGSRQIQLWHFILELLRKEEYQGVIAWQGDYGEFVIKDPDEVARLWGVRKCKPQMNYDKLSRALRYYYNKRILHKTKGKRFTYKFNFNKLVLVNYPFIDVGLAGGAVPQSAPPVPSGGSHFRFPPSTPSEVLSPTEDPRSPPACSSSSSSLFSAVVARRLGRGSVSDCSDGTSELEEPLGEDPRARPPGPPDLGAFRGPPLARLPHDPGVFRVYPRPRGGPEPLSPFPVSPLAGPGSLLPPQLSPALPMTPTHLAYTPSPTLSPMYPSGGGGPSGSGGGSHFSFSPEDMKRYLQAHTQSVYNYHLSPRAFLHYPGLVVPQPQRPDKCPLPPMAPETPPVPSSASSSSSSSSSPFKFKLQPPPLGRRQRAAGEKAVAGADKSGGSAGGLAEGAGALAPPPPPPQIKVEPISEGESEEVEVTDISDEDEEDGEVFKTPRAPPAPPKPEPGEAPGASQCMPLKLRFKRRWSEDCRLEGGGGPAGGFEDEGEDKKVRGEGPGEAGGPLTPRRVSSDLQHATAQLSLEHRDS

Sequence | binding signal (ERG) | binding signal (ELF1) | binding signal (ETV4) | binding signal (ETV1) | binding signal (ERF)
GGCTGC | 0.915 | 0.959 | 1.03 | 0.92 | 0.994
AACGGC | 1.18 | 1.16 | 1.24 | 1.17 | –
TGTGCA | 1.16 | 1.08 | 1.15 | 1.05 | –
TCGCAT | 0.982 | 1.04 | 1.05 | 0.968 | –
CTGTGT | 0.889 | 0.843 | 0.879 | 0.805 | 0.861
GCCTGT | 0.944 | 0.869 | 0.921 | 0.962 | 0.947
AAATAA | 1.37 | 1.33 | 1.24 | 1.3 | –
AGCCAC | 0.954 | 0.953 | 1.03 | 1.04 | 1.01
TCAGTA | 0.925 | 1.01 | 0.92 | 0.861 | 0.961
GTGGCA | 0.97 | 0.941 | 1.01 | 0.914 | 0.866
CCATAG | 0.853 | 0.911 | 0.921 | 0.88 | 0.971
CGCCAA | 0.969 | 1.08 | 1.04 | 0.95 | –
ACTTGC | 1.41 | 1.37 | 1.41 | 1.37 | –
GCGTCA | 0.982 | 0.984 | 0.986 | 0.963 | 0.981
ACCCAC | 1.1 | 1.13 | 1.3 | 1.17 | –
TCCAGC | 0.972 | 0.929 | 0.938 | 0.919 | 0.922
CATAGT | 0.907 | 1.01 | 1.05 | 0.974 | –
GCGTTA | 0.929 | 0.939 | 0.909 | 0.918 | 0.878
GACTGC | 0.962 | 0.888 | 1 | 0.988 | –
CGCGCA | 0.937 | 0.939 | 0.96 | 0.921 | 0.921
GCCTAG | 0.925 | 0.974 | 0.942 | 0.908 | –
TGGGTG | 1.01 | 1 | 1.07 | 0.858 | –
ATAGTC | 0.942 | 0.971 | 0.909 | 0.973 | 0.908
GCTAAC | 0.992 | 1.04 | 1.08 | 0.976 | –
CCAGCT | 0.925 | 0.989 | 0.92 | 0.81 | –
TAAGGG | 0.979 | 0.99 | 0.936 | 1.05 | –
CTGCAG | 0.962 | 1.08 | 1.15 | 0.996 | –

Sequence | binding signal (ERG) | binding signal (ELF1) | binding signal (ETV4) | binding signal (ETV1) | binding signal (ERF)
TGGGTA | 0.949 | 0.99 | 1.01 | 0.988 | –
GGCATT | 1.04 | 0.985 | 1.04 | 1.1 | –
CACATG | 1.07 | 1.16 | 1.07 | 1.1 | –
TGAAGC | 0.956 | 0.952 | 0.997 | 0.953 | –
TGGGAC | 0.962 | 0.993 | 1.02 | 0.973 | 0.994
TGGTGA | 0.884 | 0.985 | 0.923 | 0.968 | 0.955
GCCCCG | 1.06 | 0.974 | 1.09 | 0.966 | –
TGTGCG | 0.934 | 0.958 | 1.04 | 0.969 | –
GTGGAA | 0.984 | 0.942 | 0.96 | 0.944 | 0.89
GTAGCG | 0.944 | 0.921 | 1.02 | 0.993 | 0.845
CAAAAG | 0.971 | – | 0.937 | – | 0.963
GATGTC | 1.41 | – | 1.39 | – | 1.29
GGACTC | 0.971 | – | 1.05 | – | 0.984
GCAGCT | 1.02 | – | 1.06 | – | 0.94
CGCCAC | 0.972 | – | 0.984 | – | 0.968
CTGCGT | 1.13 | – | 1.15 | – | 1.13
TGCATC | 1.43 | – | 1.47 | – | 1.4
TTGCTT | 1.3 | – | 1.21 | – | 1.18
TCGTCC | 0.961 | – | 1.03 | – | 0.994
TGAATC | 0.993 | – | 0.956 | – | 0.984
ACACGG | 0.997 | – | 0.99 | – | 0.993
GTCTAT | 0.998 | – | 1.06 | – | 1.14
TTCCCA | 1.3 | – | 1.22 | – | 1.24
CATTAA | 0.963 | – | 1.03 | – | 1.1
CTCCAC | 1.37 | 1.38 | 1.48 | 1.25 | –
CTTATA | 1.28 | – | 1.27 | – | 1.29
CATTGA | 0.896 | 0.988 | 0.965 | 0.962 | –

Exported as labelled records: part of the list above.
TGCATC
  binding signal (ERG) = 1.43
  binding signal (ETV4) = 1.47
  binding signal (ERF) = 1.4
TTGCTT
  binding signal (ERG) = 1.3
  binding signal (ETV4) = 1.21
  binding signal (ERF) = 1.18
TCGTCC
  binding signal (ERG) = 0.961
  binding signal (ETV4) = 1.03
  binding signal (ERF) = 0.994
